Data published in patent US9517222B2, “Method for the treatment of senile dementia of the Alzheimer's type” (Phenomenome Discoveries Inc., priority 2007, dated 2016).
Some values come without a unit; they compare only within their column.

Legend:
[1] = Serum ethanolamine phospholipid ratios to PtdEt 16:0/18:0 (M01) in human cohorts
[2] = Serum ethanolamine phospholipid levels in human cohorts (dementia severity, post-mortem pathology, age) by flow-injection MS/MS
[3] = serum, females, post mortem SDAT
[4] = serum, females, post mortem control

## CCCCC/C=C\C/C=C\CCCCCCCC(=O)OC(CO/C=C\CCCCCCCCCCCCCCCC)COP(=O)(O)OCCN (centres unmarked) [Metabolite M21, Plasmenyl 18:0/18:2]
[1]; AD, All to CN, Male
  Ratio of ethanolamine phospholipid ratios to M01 between cohorts: 0.782
[1]; ADAS 5-19 to CN, Male
  Ratio of ethanolamine phospholipid ratios to M01 between cohorts: 0.821
[1]; ADAS 20-39 to CN, Male
  Ratio of ethanolamine phospholipid ratios to M01 between cohorts: 0.770
[1]; ADAS 40-70 to CN, Male
  Ratio of ethanolamine phospholipid ratios to M01 between cohorts: 0.738
[1]; Cognitive Normal, Male, serum
  Average serum ethanolamine phospholipid ratio to M01, Mean: 2.377
[1]; SDAT, ADAS 5-19, Male, serum
  Average serum ethanolamine phospholipid ratio to M01, Mean: 1.951
[1]; SDAT, ADAS 20-39, Male, serum
  Average serum ethanolamine phospholipid ratio to M01, Mean: 1.829
[1]; SDAT, ADAS 40-70, Male, serum
  Average serum ethanolamine phospholipid ratio to M01, Mean: 1.754
[1]; SDAT_all, Male, serum
  Average serum ethanolamine phospholipid ratio to M01, Mean: 1.857
[1]; human serum, females aged 30-39
  Ethanolamine Phospholipid Ratio to M01, Mean, Age Ctl, 30-39, Female: 2.885
[1]; human serum, females aged 40-49
  Ethanolamine Phospholipid Ratio to M01, Mean, Age Ctl, 40-49, Female: 2.537
[1]; human serum, females aged 50-59
  Ethanolamine Phospholipid Ratio to M01, Mean, Age Ctl, 50-59, Female: 2.331
[1]; human serum, females aged 50-59 vs. females aged 40-49
  Ratio of Ethanolamine Phospholipid Ratio to M01, 50-59 vs. 40-49, Female: 0.919
[1]; human serum, females aged 60-69
  Ethanolamine Phospholipid Ratio to M01, Mean, Age Ctl, 60-69, Female: 1.757
[1]; human serum, females aged 60-69 vs. females aged 40-49
  Ratio of Ethanolamine Phospholipid Ratio to M01, 60-69 vs. 40-49, Female: 0.693
[1]; human serum, females aged 70+
  Ethanolamine Phospholipid Ratio to M01, Mean, Age Ctl, 70+_Female: 1.935
[1]; human serum, females aged 70+ vs. females aged 40-49
  Ratio of Ethanolamine Phospholipid Ratio to M01, 70+ vs. 40-49, Female: 0.763
[1]; human serum, males aged 50-59 vs. males aged 40-49
  Ratio of Ethanolamine Phospholipid Ratio to M01, 50-59 vs. 40-49, Male: 1.057
[1]; human serum, males aged 60-69 vs. males aged 40-49
  Ratio of Ethanolamine Phospholipid Ratio to M01, 60-69 vs. 40-49, Male: 0.820
[1]; human serum, males aged 70+ vs. males aged 40-49
  Ratio of Ethanolamine Phospholipid Ratio to M01, 70+ vs. 40-49, Male: 0.851
[1]; serum, females, ADAS 5-19 vs cognitive normal
  Ratio of ethanolamine phospholipid ratio to M01, ADAS 5-19 to CN, Female: 0.879
[1]; serum, females, ADAS 20-39 vs ADAS 5-19
  Ratio of ethanolamine phospholipid ratio to M01, ADAS 20-39 to 5-19, Female: 0.943
[1]; serum, females, ADAS 20-39 vs cognitive normal
  Ratio of ethanolamine phospholipid ratio to M01, ADAS 20-39 to CN, Female: 0.829
[1]; serum, females, ADAS 40-70 vs ADAS 5-19
  Ratio of ethanolamine phospholipid ratio to M01, ADAS 40-70 to 5-19, Female: 0.720
[1]; serum, females, ADAS 40-70 vs ADAS 20-39
  Ratio of ethanolamine phospholipid ratio to M01, ADAS 40-70 to 20-39, Female: 0.763
[1]; serum, females, ADAS 40-70 vs cognitive normal
  Ratio of ethanolamine phospholipid ratio to M01, ADAS 40-70 to CN, Female: 0.633
[1]; serum, females, SDAT ADAS 5-19
  Ethanolamine phospholipid ratio to M01, Mean, SDAT, ADAS 5-19, Female: 2.039
[1]; serum, females, SDAT ADAS 20-39
  Ethanolamine phospholipid ratio to M01, Mean, SDAT, ADAS 20-39, Female: 1.922
[1]; serum, females, SDAT ADAS 40-70
  Ethanolamine phospholipid ratio to M01, Mean, SDAT, ADAS 40-70, Female: 1.467
[1]; serum, females, all AD vs cognitive normal
  Ratio of ethanolamine phospholipid ratio to M01, AD, All to CN, Female: 0.776
[1]; serum, females, all SDAT
  Ethanolamine phospholipid ratio to M01, Mean, SDAT_all Female: 1.798
[1]; serum, females, autopsy AD vs post mortem control
  Ratio of ethanolamine phospholipid ratio to M01, Autopsy AD vs. Control, Female: 0.674
[1]; serum, females, cognitive normal
  Ethanolamine phospholipid ratio to M01, Mean, Cognitive Normal, Female: 2.318
[1]; [3]
  Ethanolamine phospholipid ratio to M01, Mean, Post Mortem SDAT Female: 0.421
[1]; [4]
  Ethanolamine phospholipid ratio to M01, Mean, Post Mortem Ctl, Female: 0.624
[1]; serum, males, SDAT ADAS 20-39 vs ADAS 5-19
  Ratio of ethanolamine phospholipid ratio to M01, ADAS 20-39 to 5-19, Male: 0.937
[1]; serum, males, SDAT ADAS 40-70 vs ADAS 5-19
  Ratio of ethanolamine phospholipid ratio to M01, ADAS 40-70 to 5-19, Male: 0.899
[1]; serum, males, SDAT ADAS 40-70 vs ADAS 20-39
  Ratio of ethanolamine phospholipid ratio to M01, ADAS 40-70 to 20-39, Male: 0.959
[1]; serum, males, age control 30-39
  Ethanolamine phospholipid ratio to M01, Mean, Age Ctl, 30-39, Male: 2.395
[1]; serum, males, age control 40-49
  Ethanolamine phospholipid ratio to M01, Mean, Age Ctl, 40-49, Male: 2.163
[1]; serum, males, age control 50-59
  Ethanolamine phospholipid ratio to M01, Mean, Age Ctl, 50-59, Male: 2.287
[1]; serum, males, age control 60-69
  Ethanolamine phospholipid ratio to M01, Mean, Age Ctl, 60-69, Male: 1.773
[1]; serum, males, age control 70+
  Ethanolamine phospholipid ratio to M01, Mean, Age Ctl, 70+_Male: 1.840
[1]; serum, males, post mortem SDAT
  Ethanolamine phospholipid ratio to M01, Mean, Post Mortem SDAT Male: 0.371
[1]; serum, males, post mortem SDAT vs post mortem control
  Ratio of ethanolamine phospholipid ratio to M01, SDAT vs Control (post mortem, males): 0.605
[1]; serum, males, post mortem control
  Ethanolamine phospholipid ratio to M01, Mean, Post Mortem Ctl, Male: 0.613
[2]; AD, All to CN, Male
  Ratio of serum levels: 0.818
[2]; ADAS 5-19 to CN, Male
  Ratio of serum levels: 0.852
[2]; ADAS 20-39 to 5-19, Male
  Ratio of serum levels: 0.934
[2]; ADAS 20-39 to CN, Male
  Ratio of serum levels: 0.796
[2]; ADAS 40-70 to 5-19, Male
  Ratio of serum levels: 0.889
[2]; ADAS 40-70 to 20-39, Male
  Ratio of serum levels: 0.952
[2]; ADAS 40-70 to CN, Male
  Ratio of serum levels: 0.757
[2]; Cognitive Normal, Female
  Serum level, Mean: 0.265
[2]; Cognitive Normal, Male
  Average serum level, Mean: 0.265
[2]; Post Mortem Ctl, Male
  Serum level, Mean: 0.072
[2]; Post Mortem SDAT Male
  Serum level, Mean: 0.033
[2]; Post mortem SDAT vs Control, Male
  Ratio of serum levels: 0.464
[2]; SDAT, ADAS 5-19, Female
  Serum level, Mean: 0.219
[2]; SDAT, ADAS 5-19, Male
  Average serum level, Mean: 0.226
[2]; SDAT, ADAS 20-39, Female
  Serum level, Mean: 0.205
[2]; SDAT, ADAS 20-39, Male
  Average serum level, Mean: 0.211
[2]; SDAT, ADAS 40-70, Female
  Serum level, Mean: 0.165
[2]; SDAT, ADAS 40-70, Male
  Average serum level, Mean: 0.201
[2]; SDAT_all, Female
  Serum level, Mean: 0.195
[2]; SDAT_all, Male
  Average serum level, Mean: 0.217
[2]; serum level ratio, females, ADAS 5-19 vs CN
  Ratio, ADAS 5-19 to CN, Female: 0.826
[2]; serum level ratio, females, ADAS 20-39 vs ADAS 5-19
  Ratio, ADAS 20-39 to 5-19, Female: 0.939
[2]; serum level ratio, females, ADAS 20-39 vs CN
  Ratio, ADAS 20-39 to CN, Female: 0.776
[2]; serum level ratio, females, ADAS 40-70 vs ADAS 5-19
  Ratio, ADAS 40-70 to 5-19, Female: 0.755
[2]; serum level ratio, females, ADAS 40-70 vs ADAS 20-39
  Ratio, ADAS 40-70 to 20-39, Female: 0.804
[2]; serum level ratio, females, ADAS 40-70 vs CN
  Ratio, ADAS 40-70 to CN, Female: 0.624
[2]; serum level ratio, females, age 50-59 vs 40-49
  Ratio, 50-59 vs. 40-49, Female: 0.829
[2]; serum level ratio, females, age 60-69 vs 40-49
  Ratio, 60-69 vs. 40-49, Female: 0.763
[2]; serum level ratio, females, age 70+ vs 40-49
  Ratio, 70+ vs. 40-49, Female: 0.832
[2]; serum level ratio, females, all AD vs cognitively normal
  Ratio, AD, All to CN, Female: 0.737
[2]; serum level ratio, females, autopsy AD vs control
  Ratio, Autopsy AD vs. Control, Female: 0.414
[2]; serum level ratio, males, age 50-59 vs 40-49
  Ratio, 50-59 vs. 40-49, Male: 1.048
[2]; serum level ratio, males, age 60-69 vs 40-49
  Ratio, 60-69 vs. 40-49, Male: 0.941
[2]; serum level ratio, males, age 70+ vs 40-49
  Ratio, 70+ vs. 40-49, Male: 1.000
[2]; serum, females, age 30-39
  Mean serum level, Age Ctl, 30-39, Female: 0.294
[2]; serum, females, age 40-49
  Mean serum level, Age Ctl, 40-49, Female: 0.275
[2]; serum, females, age 50-59
  Mean serum level, Age Ctl, 50-59, Female: 0.228
[2]; serum, females, age 60-69
  Mean serum level, Age Ctl, 60-69, Female: 0.210
[2]; serum, females, age 70+
  Mean serum level, Age Ctl, 70+, Female: 0.229
[2]; [3]
  Mean serum level, Post Mortem SDAT, Female: 0.041
[2]; [4]
  Mean serum level, Post Mortem Ctl, Female: 0.100
[2]; serum, males, age 30-39
  Mean serum level, Age Ctl, 30-39, Male: 0.294
[2]; serum, males, age 40-49
  Mean serum level, Age Ctl, 40-49, Male: 0.236
[2]; serum, males, age 50-59
  Mean serum level, Age Ctl, 50-59, Male: 0.247
[2]; serum, males, age 60-69
  Mean serum level, Age Ctl, 60-69, Male: 0.222
[2]; serum, males, age 70+
  Mean serum level, Age Ctl, 70+, Male: 0.236
